Source: PubChem BioAssay AID504786 (Drosophila RNAi Screening Center, 2011)
Test: 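Positive regulators of HIF-driven reporter output in Drosophila cells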 (primary screen). System: Drosophila S2 cells with a stable HIF luciferase reporter. Knock-down reagent: long dsRNA against Drosophila genes, about 0.2 µg dsRNA per well of a 384-well plate. Timing: three days of knock-down, then 20 h of DFO before reading. Conditions: desferrioxamine (DFO) at 100 µM, an iron chelator that mimics hypoxia, for 20 h. Detection: 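HIF reporter luminescence in cells given 100 µM DFO for 20 h, using the mouse ldh-a hypoxia-response element, scored as per-plate z-scores; higher means greater loss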. Scale: z-score: higher = stronger loss of HIF reporter signal.
In all, the deposit lists about 21,000 reagents; below is a random part of those with a known target gene and a result. 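Primary screen; positive scores mean lost reporter signal, so the sign may be inverted from the usual convention.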 A plus sign joins genes that one reagent is predicted to hit. Not all columns of the deposit are shown.

z-score, replicate 1, by gene and reagent
CG14322: DRSC14801 -0.9
betaTub60D: DRSC04673 -0.4
CG12637: DRSC17845 -0.1
Grip163: DRSC10538 -0.1
Sdb: DRSC06272 -0.2; DRSC06273 -0.1; DRSC07155 -0.3
CG8671: DRSC03102 -0.2; DRSC03103 -0.3
pch2: DRSC14368 -0.3
CaMKI: DRSC17162 -0.3
wat: DRSC14854 -0.3
ymp: DRSC13720 0.1; DRSC14482 -0.2
SPR: DRSC17390 -0.6; DRSC17886 0; DRSC18114 -0.3
BomBc2: DRSC06502 -0.3
CG42286 (retired record): DRSC14357 0
CG18599: DRSC15357 -0.5
CG3088: DRSC10352 -0.3
qkr58E-3: DRSC04711 -0.3
CG13898: DRSC08368 -0.4
CG12360 (retired record): DRSC14505 -0.1
CG31495: DRSC16762 -0.3
CG31460: DRSC14370 -0.4
Cp38: DRSC18453 -0.3
Atac3: DRSC08579 -0.2
CG14488: DRSC06460 -0.2
CG1571: DRSC18068 -0.2
mRNA-cap: DRSC19789 3.2
CG32191: DRSC10522 0
CG33773: DRSC14032 -0.5
CG11529: DRSC09839 -0.3
CG8435: DRSC07179 -0.1
Vha36-1: DRSC07098 -0.3
twe: DRSC03628 -0.3
CG1943: DRSC12576 -0.1
CG15059: DRSC19633 -0.3
Acox3: DRSC03251 -0.4
AANATL3: DRSC02089 -0.2
onecut: DRSC17175 -0.3
Cpr72Ec: DRSC10449 -0.3
CG9222: DRSC03158 -0.2
CG13872: DRSC06431 -0.3
CG11147: DRSC02129 -0.1
Cpr64Ad: DRSC08284 -0.1
CG7309: DRSC03045 -0.3
NdufA3: DRSC18431 0.4
CG4291: DRSC00650 0.1
ProRS-m: DRSC08261 -0.2
CG5521: DRSC15828 -0.1
kel: DRSC03554 -0.1
CG42662 + CG30080: DRSC05571 0.1
garz: DRSC07193 -0.7
Prosbeta4R2: DRSC00503 -0.3
BaraC: DRSC03885 -0.1
CG1979: DRSC12495 -0.4
Bcs1: DRSC02789 -0.1
CG13177: DRSC06303 0
CG9119: DRSC08620 7.2
amos: DRSC03484 -0.3
CG14960: DRSC08419 -0.1
AP-1gamma: DRSC18433 0.3
CG17019: DRSC06642 -0.3
Mesh1: DRSC14433 0.2
glu: DRSC03539 -0.4
CG13223: DRSC06344 -0.4
CR14798: DRSC17956 -0.2
CG14655: DRSC12241 -0.1
Dbp21E2: DRSC00616 -0.3
Nlg3: DRSC12477 -0.3; DRSC12524 0.3; DRSC12540 0; DRSC12574 -0.2
cyp33: DRSC07600 9.3
Pisd: DRSC15935 -0.3
CG15572: DRSC18060 -0.3
Lac: DRSC07452 -0.2
CG10904: DRSC04084 -0.2
nmo: DRSC08902 0.3; DRSC11377 -0.1
RabX6: DRSC08223 -0.1
CG1075 (retired record): DRSC12144 -0.3
boil: DRSC17872 -0.3
smid: DRSC11398 -0.4
CG30394: DRSC04074 -0.1; DRSC04260 -0.3
pdm2: DRSC02496 -0.3; DRSC02497 -0.3; DRSC03587 -0.3
scaf6: DRSC10075 -0.1; DRSC10676 0.5; DRSC10678 2
PIG-H + Kmn2: DRSC12653 0.6
Nelf-A: DRSC15903 -0.2
CG9616: DRSC16518 -0.1
CG33514: DRSC08471 0.2; DRSC08472 -0.4
Osi10b: DRSC12279 0.1
Trmt61: DRSC14888 -0.7
CG42372 + CG30100: DRSC05602 1.9
Cpr47Ee: DRSC06343 2.6
Sox15: DRSC07555 0.9
CG15676: DRSC04267 -0.2
Pgant1: DRSC07095 -0.4

In a second layout: results already given.
{"Gene":"CG10904","amplicon":"DRSC04084","z-score, replicate 1":-0.2}
{"Gene":"nmo","amplicon":"DRSC08902","z-score, replicate 1":0.3}
{"Gene":"nmo","amplicon":"DRSC11377","z-score, replicate 1":-0.1}
{"Gene":"RabX6","amplicon":"DRSC08223","z-score, replicate 1":-0.1}
{"Gene":"CG1075 (retired record)","amplicon":"DRSC12144","z-score, replicate 1":-0.3}
{"Gene":"boil","amplicon":"DRSC17872","z-score, replicate 1":-0.3}
{"Gene":"smid","amplicon":"DRSC11398","z-score, replicate 1":-0.4}
{"Gene":"CG30394","amplicon":"DRSC04074","z-score, replicate 1":-0.1}
{"Gene":"CG30394","amplicon":"DRSC04260","z-score, replicate 1":-0.3}
{"Gene":"pdm2","amplicon":"DRSC02496","z-score, replicate 1":-0.3}
{"Gene":"pdm2","amplicon":"DRSC02497","z-score, replicate 1":-0.3}
{"Gene":"pdm2","amplicon":"DRSC03587","z-score, replicate 1":-0.3}
{"Gene":"scaf6","amplicon":"DRSC10075","z-score, replicate 1":-0.1}
{"Gene":"scaf6","amplicon":"DRSC10676","z-score, replicate 1":0.5}
{"Gene":"scaf6","amplicon":"DRSC10678","z-score, replicate 1":2}
